Results taken from EP0239528A1, “13-Beta-carbamoyloxy-milbemicyne derivatives for fighting harmful animal and plant parasites” (CIBA-GEIGY AG, priority 1986, dated 1987).
Some results were stated once for a whole list of compounds, not compound by compound.

Test system: Haemonchus concortus und Trichostrongylus colubriformis
Experiment: B-5 test on nematode-infected sheep, worm egg count in faeces
Assay type: in vivo, Schafen
Details: single dose 0,5 mg/kg by stomach tube or intraruminal injection
Experimental: B-5. Versuch an mit Nematoden (Haemonchus concortus und Trichostrongylus colubriformis) infizierten Schafen
Der Wirkstoff wird als Suspension formuliert mit einer Magensonde oder durch Injektion in den Pansen eines Schafes gegeben, das mit Haemonchus concortus und Trychostrongylus colubriformis künstlich infiziert worden ist. Pro Dosis werden 1 bis 3 Tiere verwendet. Jedes Schaf wird nur einmal mit einer einzigen Dosis behandelt, und zwar wahlweise mit 1 mg oder 0,5 mg/kg Körpergewicht. Die Evaluierung erfolgt durch Vergleich der Anzahl der vor und nach Behandlung im Kot der Schafe ausgeschiedenen Wurmeier.
Gleichzeitig und gleichartig infizierte aber unbehandelte Schafe dienen als Kontrolle. […] Verbindungen aus den Herstellungsbeispielen, wie. z.B. E4, E8, E14, E18, E30 bis E32, E 34 und E36, bewirkten dies auch noch bei 0,5 mg/kg.

| Compound | Nematodenbefall (Reduktion der Wurmeier im Kot) |
| --- | --- |
| 5-O-tert.-Butyldimethylsilyl-13β-N-((R)-1-phenylethyl)-carbamoyloxy-milbemycin A₄ [Beispiel E31] | komplette Reduktion der Wurmeier im Kot |
| CCC1OC2(CCC1C)CC1CC(CC=C(C)C(OC(=O)NC(C)c3ccccc3)C(C)C=CC=C3COC4C(O)C(C)=CC(C(=O)O1)C34O)O2 [Beispiel E30, 13β-N-((S)-1-Phenylethyl)-carbamoyloxy-milbemycin A₄] | komplette Reduktion der Wurmeier im Kot |
